At least one structure is not confirmed: it was looked up by name or label, or the drawing left a doubt.
How the values were obtained:
Assay type in all cases: cell-based, human
P-JNK1/2(T183/Y185) = assay: JNK MAP kinase activation by sMICA plus crosslinking anti-His tag Ab (immunoblot); conditions: U0126 10 μM, SP600125 100 μM, wortmannin 200 nM, added 30 min before stimulation
Excerpt: (§1) NKG2D was immunoprecipitated from standard NP-40 buffer lysates of FACSAria-sorted EpCAM^+CD45^− cancer cells (˜5×10^6 per lane), tumor lines (˜5×10^7 cells; 2×10^7 cells with BT-20), and transfectants (5×10^6 cells) using mAb 5C6 immobilized on AminoLink Plus Coupling Resin (Pierce). DAP10 was immunoprecipitated using rabbit polyclonal antibodies (FL-93; Santa Cruz Biotechnology). Immunoblots were probed with polyclonal antibodies to NKG2D or DAP10 (N-20 and N-17; Santa Cruz Biotechnology), or Grb2 (Cell Signaling Technology) and developed using secondary reagents and Supersignal West Dura Extended Duration Substrate (Pierce). Immunoprecipitation and immunoblot detection of mouse NKG2D utilized a rat mAb (clone 191004; R&D Systems) and goat polyclonal reagent (H-15; Santa Cruz Biotechnology), respectively. […] Phosphoproteins and protein controls were detected using rabbit polyclonal antibodies (to P-mTOR, P-S6K1, and P-4E-BP1), mAbs (clones 7C10, 236B4, and 53H11), and anti-rabbit IgG-HRP (all from Cell Signaling Technology). MAPKs were detected with cells grown to semi-confluence in 6-well plates and desensitized for 24 h. […]
(§2) As determined so far, signaling pathway activation by NKG2D-DAP10 in tumor cells was similar to lymphocytes. […]

P-ERK1/2(T202/Y204) = assay: ERK MAP kinase activation by sMICA plus crosslinking anti-His tag Ab (immunoblot); conditions: U0126 10 μM, SP600125 100 μM, wortmannin 200 nM, added 30 min before stimulation
Excerpt: as §1, §2

P-AKT(S473) = assay: P-AKT induction after NKG2D crosslinking in tumor lines (immunoblot); conditions: wortmannin 100 nM
Excerpt: as §1

`Oc1c2ccccc2c2c3c(cccc13)N=N2` [SP600125] was tested, and the “effect of inhibitor on appearance of P-JNK1/2” value (P-JNK1/2(T183/Y185)) was “diminished” and the “effect of inhibitor on appearance of P-ERK1/2” value (P-ERK1/2(T202/Y204)) was “not vice versa”.

`COC[C@H]1OC(=O)c2coc3c2[C@@]1(C)C1=C(C3=O)[C@@H]2CCC(=O)[C@@]2(C)C[C@H]1OC(C)=O` [wortmannin] was tested, and the “sensitivity of AKT phosphorylation to inhibitor” value (P-AKT(S473)) was “sensitive”, the “effect of inhibitor on appearance of P-JNK1/2” value (P-JNK1/2(T183/Y185)) was “not P-JNK1/2 was sensitive” and the “effect of inhibitor on appearance of P-ERK1/2” value (P-ERK1/2(T202/Y204)) was “sensitive”.
